PubChem BioAssay AID504784, Drosophila RNAi Screening Center, 2011

- Test: 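Genome-wide knock-down for genes giving too much or too little stored lipid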 (primary screen)
- System: Drosophila Kc167 embryonic cells
- Knock-down reagent: long dsRNA against Drosophila genes, about 250 ng dsRNA per well
- Time to read-out: 4 days
- Conditions: cells fed 400 µM oleic acid bound to BSA
- Read-out: 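Cells imaged and segmented; ratio of lipid droplet area to nuclear area, log-transformed, then normalised as a B-score over the screen; higher means more stored lipid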
- Direction: droplet/nuclear area B-score: higher = more stored lipid (overstorage)
The deposit covers about 17,000 reagents; shown is an unselected part of those that have a named target and a result. 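Each column is one replicate's B-score; the combined score over replicates was not deposited, so single values may mislead.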 The numbers tell different reagents against one gene apart. A plus sign joins genes that one reagent is predicted to hit.

| gene | reagent | droplet/nuclear area B-score, replicate 1 | droplet/nuclear area B-score, replicate 2 | droplet/nuclear area B-score, replicate 3 |
| --- | --- | --- | --- | --- |
| CG4836 | 1 | 0.0853 | 0.392 | – |
| tap | 1 | 0.0202 | 1.48 | – |
| Cpr62Ba | 1 | -0.47 | 0.9 | – |
| meru | 1 | 0.542 | 1.38 | – |
| meru | 2 | -4.78 | -5.08 | – |
| meru | 3 | -0.00508 | -0.135 | – |
| Mgat2 | 1 | -0.0109 | – | – |
| kis | 1 | -1.05 | 1.44 | – |
| kis | 2 | -1.2 | 2.75 | – |
| kis | 3 | 1.85 | 0.692 | – |
| lncRNA:sphinx + ATPsynF | 1 | 2.05 | 0.292 | – |
| I-3 | 1 | 0.251 | 0.854 | – |
| CG6527 | 1 | -0.0515 | -0.747 | – |
| Cyp6a22 | 1 | -0.347 | -1.42 | – |
| OXA1L | 1 | 3.72 | 2.18 | – |
| CG32668 | 1 | 0.802 | -0.527 | – |
| Tmem214 | 1 | -0.541 | 0.095 | – |
| Tmem214 | 2 | 0.223 | 0.212 | – |
| trio | 1 | 1.43 | 0.279 | – |
| trio | 2 | 2.61 | – | – |
| trio | 3 | 0.401 | -1.09 | – |
| Aplip1 | 1 | -0.659 | -1.94 | – |
| Aplip1 | 2 | -0.318 | 0.714 | – |
| CG13130 (retired record) | 1 | -1.64 | -1.35 | – |
| bdl | 1 | 1.79 | -0.888 | – |
| CG12877 | 1 | 0.0472 | -0.325 | – |
| Mec2 | 1 | -0.167 | 1.18 | – |
| CG31365 | 1 | 1.94 | -0.19 | – |
| CG30002 | 1 | -0.748 | -0.648 | – |
| CG33007 (retired record) | 1 | -0.287 | -1.96 | – |
| Yod1 | 1 | 1.04 | -0.174 | – |
| pio | 1 | 1.02 | -2.19 | – |
| Ag5r | 1 | 0.85 | 0.216 | -0.52 |
| Tg | 1 | -1.38 | -0.344 | – |
| mRF1 | 1 | -0.31 | 0.236 | – |
| tau | 1 | 0.256 | 2.13 | – |
| tau | 2 | 0.0318 | -0.0246 | – |
| Ice1 | 1 | 0.328 | -0.84 | – |
| CG13285 | 1 | -0.661 | -0.33 | – |
| CG5653 | 1 | -1.71 | -1.02 | – |
| Cph | 1 | 0.61 | 0.0372 | – |
| CG33062 | 1 | -1.14 | -1.55 | – |
| lbe | 1 | -0.583 | – | – |
| Fancm | 1 | 0.173 | 2.37 | – |
| CG4982 | 1 | 0.048 | 2.84 | – |
| CG4502 | 1 | -1.38 | -2.84 | – |
| CG4502 | 2 | 0.872 | -0.414 | – |
| CG32606 (retired record) | 1 | -0.0162 | 1.47 | – |
| CG32606 (retired record) | 2 | -0.523 | 1.13 | – |
| CG32606 (retired record) | 3 | -0.412 | 1.53 | -0.52 |
| CG32606 (retired record) | 4 | 0.798 | -0.000427 | -0.677 |
| CG32606 (retired record) | 5 | -0.435 | 0.0328 | – |
| caup | 1 | -2.88 | -1.84 | – |
| caup | 2 | 0.704 | -0.816 | – |
| Or67d | 1 | 1.17 | 0.753 | – |
| Ubc2 | 1 | -0.217 | -0.797 | – |
| Ubc2 | 2 | -3.98 | -2.95 | – |
| MFS1 | 1 | -0.106 | 0.854 | – |
| Tao | 1 | -2.1 | -3.55 | 0.483 |
| Tao | 2 | – | -2.51 | – |
| Tao | 3 | 0.83 | -1.15 | – |
| Glut1 | 1 | 1.61 | 0.736 | – |
| Glut1 | 2 | 0.147 | – | – |
| mAChR-C | 1 | 0.00135 | 0.233 | – |
| CG4576 | 1 | 0.109 | 0.11 | – |
| RagC-D | 1 | -1.12 | 0.301 | – |
| CG6163 | 1 | 0.63 | -0.00586 | – |
| CG15611 | 1 | 1.92 | -0.0245 | – |
| CG15611 | 2 | 1.49 | -0.984 | – |
| CG7530 | 1 | -0.193 | -0.217 | 0.688 |
| CG12253 | 1 | -0.497 | 0.173 | – |
| smg | 1 | -0.257 | -0.653 | – |
| CG32267 | 1 | -0.0749 | -0.677 | – |
| CSN6 | 1 | 0.401 | -0.0935 | – |
| fuss | 1 | -0.0362 | -0.858 | – |
| fuss | 2 | -0.758 | 1.04 | – |
| CG5815 | 1 | 0.194 | -1.71 | – |
| GstD6 | 1 | 0.246 | -1.25 | – |
| egh | 1 | 0.0868 | 0.836 | – |
| Gga | 1 | 0.33 | -0.606 | 0.468 |
| sky | 1 | 1.81 | 0.649 | – |
| sky | 2 | 1.06 | 2.04 | – |
| sky | 3 | -0.332 | -1.5 | – |
| CG7255 | 1 | 0.585 | 0.456 | 0.901 |
| Jhbp2 | 1 | -0.461 | -0.608 | – |
| CG42541 | 1 | 0.0405 | 1.22 | – |
| CG42541 | 2 | 0.249 | 3.91 | – |
| CG42541 | 3 | -0.412 | -0.176 | – |
| CG6149 | 1 | -0.559 | 0.974 | – |
| rdgB | 1 | -0.419 | -0.761 | – |
| CG13813 | 1 | 0.854 | -0.46 | – |
| Amun | 1 | 0.121 | -0.84 | 0.0795 |
| conv | 1 | -0.0227 | 2.53 | – |
| bwa | 1 | -0.0471 | -0.664 | – |
| bwa | 2 | -0.38 | 0.0155 | – |
| lncRNA:CR32660 | 1 | -1.2 | -0.553 | – |
| pnr | 1 | -0.182 | 5.13 | – |
| Nep1 | 1 | -0.265 | 0.162 | -0.846 |
| Nep1 | 2 | 0.541 | 3.74 | – |
| sxe2 | 1 | 0.123 | 0.0798 | – |
| CG12020 | 1 | 0.566 | 1.12 | – |
| CG12299 | 1 | -3.19 | – | – |
| caps | 1 | 2.56 | 0.702 | – |
| caps | 2 | 1.97 | 1.51 | – |
| Adsl | 1 | -0.3 | 0.302 | – |
